Source: publication PMC6053202
Where a chain is given by its changes, count along the chain named. Names and notes keep the numbering of the source. Results are given in words; binding and its absence hold for the method and conditions named. In cells and extracts the contact can be indirect. Some results given as binding are weak or reduced against the parent protein; the word gives no strength. Where a sequence is shown, tags or fusion partners need not be part of it. One block for each molecule: values may come before it.

Chains of the proteins cited; added tags and fusions are not shown. Residues count along the entry.
UniProt P14625, residues 22-803: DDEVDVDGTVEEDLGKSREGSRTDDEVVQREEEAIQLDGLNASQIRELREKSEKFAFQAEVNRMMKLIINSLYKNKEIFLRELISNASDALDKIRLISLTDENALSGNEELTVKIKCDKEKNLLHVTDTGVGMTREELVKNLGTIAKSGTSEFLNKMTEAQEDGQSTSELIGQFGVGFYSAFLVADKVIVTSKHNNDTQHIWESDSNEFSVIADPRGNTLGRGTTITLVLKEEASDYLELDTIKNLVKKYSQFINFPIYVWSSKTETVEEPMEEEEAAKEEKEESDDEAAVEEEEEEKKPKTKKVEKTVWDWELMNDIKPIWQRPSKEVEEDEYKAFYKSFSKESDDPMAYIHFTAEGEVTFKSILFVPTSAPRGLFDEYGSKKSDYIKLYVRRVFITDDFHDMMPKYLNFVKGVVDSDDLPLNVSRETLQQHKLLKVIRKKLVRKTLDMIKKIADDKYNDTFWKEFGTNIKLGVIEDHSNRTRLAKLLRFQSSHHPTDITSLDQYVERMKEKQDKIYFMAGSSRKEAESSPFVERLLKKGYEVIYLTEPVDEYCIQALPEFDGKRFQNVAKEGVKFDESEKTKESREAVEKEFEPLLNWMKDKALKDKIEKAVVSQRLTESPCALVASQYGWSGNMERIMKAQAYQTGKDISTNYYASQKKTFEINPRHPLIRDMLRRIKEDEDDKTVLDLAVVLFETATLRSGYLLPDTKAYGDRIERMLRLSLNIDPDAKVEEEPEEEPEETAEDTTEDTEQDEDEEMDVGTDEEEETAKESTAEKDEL

Legend:
[1] = target: T1, GFP-tagged TLR9 Y870A (mouse) (UniProt Q9EQU3); experiment: co-IP; 293T cells co-transfected with FLAG-UNC93B1 and GFP-tagged WT or Y870A TLR9 (4 ug each), 1% NP40 lysates; GFP-Trap agarose beads, 2 h at 4 C; immunoblot for GFP, FLAG and GRP94
T1 sequence: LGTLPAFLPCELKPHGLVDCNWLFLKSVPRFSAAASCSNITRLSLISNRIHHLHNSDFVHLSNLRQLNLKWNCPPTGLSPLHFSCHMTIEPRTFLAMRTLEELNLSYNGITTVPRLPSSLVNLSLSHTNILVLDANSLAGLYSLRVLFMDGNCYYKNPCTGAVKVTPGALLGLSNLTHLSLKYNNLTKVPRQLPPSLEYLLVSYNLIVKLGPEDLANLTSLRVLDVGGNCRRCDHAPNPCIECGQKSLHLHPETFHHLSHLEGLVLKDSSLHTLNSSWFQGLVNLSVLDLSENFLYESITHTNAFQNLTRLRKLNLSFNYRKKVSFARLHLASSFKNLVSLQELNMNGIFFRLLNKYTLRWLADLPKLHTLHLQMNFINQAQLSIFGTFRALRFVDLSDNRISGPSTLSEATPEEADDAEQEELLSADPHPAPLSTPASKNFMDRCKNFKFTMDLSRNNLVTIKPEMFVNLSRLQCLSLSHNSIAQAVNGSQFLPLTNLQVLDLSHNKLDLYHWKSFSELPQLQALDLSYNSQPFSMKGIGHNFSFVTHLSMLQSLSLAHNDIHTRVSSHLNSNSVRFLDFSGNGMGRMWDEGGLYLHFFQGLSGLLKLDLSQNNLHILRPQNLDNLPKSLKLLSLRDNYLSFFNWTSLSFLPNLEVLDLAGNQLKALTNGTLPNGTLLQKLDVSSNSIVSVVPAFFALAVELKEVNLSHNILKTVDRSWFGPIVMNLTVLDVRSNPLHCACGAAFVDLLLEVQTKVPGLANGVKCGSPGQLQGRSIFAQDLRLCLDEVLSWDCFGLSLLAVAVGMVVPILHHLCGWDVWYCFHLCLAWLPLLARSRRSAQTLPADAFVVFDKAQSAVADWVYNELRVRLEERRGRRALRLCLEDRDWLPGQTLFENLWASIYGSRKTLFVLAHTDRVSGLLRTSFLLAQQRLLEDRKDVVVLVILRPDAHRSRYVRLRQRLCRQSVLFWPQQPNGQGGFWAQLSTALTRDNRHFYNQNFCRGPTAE

[2] = target: T2, GFP-tagged WT TLR9 (mouse) (UniProt Q9EQU3); experiment: as above
T2 sequence: T1 sequence with A845Y

[3] = target: T3, HA-tagged TLR9 Y870A (mouse) (UniProt Q9EQU3); experiment: co-IP; 293T cells co-transfected with HA- and GFP-tagged TLR9 (4 ug each construct), lysed after 24 h in 1% NP40 buffer; anti-HA antibody and rabbit IgG beads, 4 C; immunoblot for HA and GFP
T3 sequence: T1 sequence

[4] = target: T4, HA-tagged WT TLR9 (mouse) (UniProt Q9EQU3); experiment: as above
T4 sequence: T1 sequence with A845Y

binding [1]: binds
binding [2]: binds
Molecule: endogenous GRP94 (from UniProt P14625 22-803)

binding [3]: binds
binding [4]: binds
B1: GFP-tagged TLR9 Y870A (receptor, UniProt Q9EQU3 26-1032)
chain: T1 sequence

binding [1]: binds
binding [2]: binds
B2: FLAG-tagged UNC93B1 (protein, UniProt Q8VCW4 1-598)
chain: MEVEPPLYPVAGAAGPQGDEDRHGVPDGPEAPLDELVGAYPNYNEEEEERRYYRRKRLGVVKNVLAASTGVTLTYGVYLGLLQMQLILHYDETYREVKYGNMGLPDIDSKMLMGINVTPIAALLYTPVLIRFFGTKWMMFLAVGIYALFVSTNYWERYYTLVPSAVALGMAIVPLWASMGNYITRMSQKYYEYSHYKEQDEQGPQQRPPRGSHAPYLLVFQAIFYSFFHLSFACAQLPMIYFLNNYLYDLNHTLINVQSCGTKSQGILNGFNKTVLRTLPRSKNLIVVESVLMAVAFLAMLMVLGLCGAAYRPTEEIDLRSVGWGNIFQLPFKHVRDFRLRHLVPFFIYSGFEVLFACTGFALGYGVCSMGLERLAYLLIAYSLGASASSVLGLLGLWLPRSVPLVAGAGLHLLLTLSLFFWAPAPRVLQHSWIFYFVAALWGVGSALNKTGLSTLLGILYEDKERQDFIFTIYHWWQAVAIFVVYLGSSLPMKAKLAVLLVTLVAAAASYLWMEQKLQQGLVPRQPRIPKPQHKVRGYRYLEEDNSDESDMEGEQGQGDCAEDEAPQAGPLGAEPAGPCRKPCPYEQALGGDGPEEQ
